From PubChem BioAssay AID1671190 (National Center for Advancing Translational Sciences (NCATS), 2021)
In all, about 580,000 compounds went through this assay and about 6,100 (1.1%) were called active. The inconclusive results got no clear call from the source; some entries with a clear call stand among them for comparison. Calls follow the shape of the dose curve; as a rule, active = well fitted inhibition curve with a large enough effect; inconclusive = small, poorly fitted or top-dose-only effect, or another doubt; inactive = no such curve, though single readings can be large or run the other way. Potencies of inconclusive entries are doubtful fits and often do not repeat.

Protein sequences, listed by entry. Tags and fused reporters are not part of them. Lines headed by an entry give the natural chain unless they say otherwise; changes in a name come on top.
UniProt P18054: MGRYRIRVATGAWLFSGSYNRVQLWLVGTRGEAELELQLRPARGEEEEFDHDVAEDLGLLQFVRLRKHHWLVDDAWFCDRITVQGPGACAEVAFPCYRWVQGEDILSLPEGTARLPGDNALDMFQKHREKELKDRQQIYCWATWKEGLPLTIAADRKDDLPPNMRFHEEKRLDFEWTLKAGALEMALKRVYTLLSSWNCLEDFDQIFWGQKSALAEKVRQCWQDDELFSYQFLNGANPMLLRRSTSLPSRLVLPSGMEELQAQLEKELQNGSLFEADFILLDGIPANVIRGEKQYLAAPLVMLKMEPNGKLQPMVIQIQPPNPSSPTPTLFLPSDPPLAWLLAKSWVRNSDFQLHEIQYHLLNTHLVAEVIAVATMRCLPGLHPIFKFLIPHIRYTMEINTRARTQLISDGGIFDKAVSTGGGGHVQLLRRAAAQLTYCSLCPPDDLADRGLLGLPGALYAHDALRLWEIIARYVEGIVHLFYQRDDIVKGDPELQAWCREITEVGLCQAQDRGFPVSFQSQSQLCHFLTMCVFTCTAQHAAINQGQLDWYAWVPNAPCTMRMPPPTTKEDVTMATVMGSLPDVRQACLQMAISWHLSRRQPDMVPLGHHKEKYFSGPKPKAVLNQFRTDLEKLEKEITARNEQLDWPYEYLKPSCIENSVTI

Molecular target: Polyunsaturated fatty acid lipoxygenase ALOX12 (Homo sapiens) (UniProt P18054)
Test: Primary qHTS assay for inhibitors of human arachidonate 12S-lipoxygenase (ALOX12): Round 2
Details: purified 12hLO, xylenol orange hydroperoxide absorbance; activity change, negative = inhibition: at 108 µM (top of the series) unless noted
In short: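 Purified human 12hLO (150 nM final) in 25 mM Hepes, 0.01% Triton X-100, pH 7.0 was preincubated 15 min at room temperature with compound. Then 40 uM arachidonic acid was added, 30 min. Hydroperoxide was read by Fe-XO absorbance ratio 573/405 nm.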
% is scaled to controls: 0 for no effect and ±100 for the full control effect; potency is read from the fitted curve at half-maximal effect.

Structure (SMILES) | Potency | activity change, negative = inhibition
CC(C)Oc1ccc(CCc2n[nH]c(=S)n2-c2ccccc2)cc1 | inconclusive: 44.7 µM [inhibitor, partial curve, poor fit] | –
O=C(Nc1c[nH]c(=O)[nH]c1=O)c1cc([N+](=O)[O-])cc([N+](=O)[O-])c1 | inconclusive: 0.224 µM [inhibitor, full curve, poor fit] | –
COC(=O)Cc1[nH]n(-c2ccccc2)c(=O)c1C(C)=Nc1ccccc1 | inconclusive: 3.98 µM [inhibitor, full curve, poor fit] | –
COc1ccccc1CN(C)CC(=O)NC(=O)NC1CCCCC1 | – | inactive: 1.61%
COCCCNC(=O)c1cc(C)nc2onc(C3CCCNC3)c12 (configuration not stated) | inconclusive: 112 µM [inhibitor, partial curve, poor fit] | –
CC(C(=O)Nc1ccc(Br)cc1)n1cnc2c1c(=O)n(C)c(=O)n2C (configuration not stated) | inconclusive: 63.1 µM [inhibitor, partial curve, poor fit] | –
O/N=C1\CC/C(=N\O)c2nn(-c3ccc(Cl)cc3Cl)nc21 | – | inactive: 17.2%
O=C(Nc1cccnc1)c1ccc(-c2ccccc2)cc1 | – | inactive: -7.45%
Cc1cc2ncc(C(=O)NCc3ccc(F)cc3)cn2n1 | – | inactive: -5.91% [at 176 µM]
CCn1nnc(NC(=O)c2ccccc2Br)n1 | – | inactive: -12.3%
O=C(CSc1ncnc2sc3c(c12)CCCC3)c1ccccc1 | – | inactive: 7.55%
O=C(CCNC(=O)N1CCn2c1nc1ccccc12)NCc1ccc(F)cc1 | – | inactive: 7.24%
CN1CCC(N(C)C(=O)c2cc(-c3ccc(F)cc3)nc3ccccc23)CC1 | inconclusive: 56.2 µM [inhibitor, partial curve, poor fit] | –
CCOC(=O)C1=C(N)Oc2c(oc(CO)cc2=O)C1c1ccccc1C(F)(F)F (configuration not stated) | inconclusive: 158 µM [inhibitor, partial curve, poor fit] | –
O=C(NCc1ccc2c(c1)OCO2)c1nc(-c2ccc(F)cc2)c2cnccn12 | inconclusive: 7.94 µM [inhibitor, full curve] | –
O=C(Nc1nnc(SCC(=O)N2CCCCC2)s1)c1c(F)cccc1F | inconclusive: 1.26 µM [inhibitor, full curve, poor fit] | –
Cc1ccccc1OCc1nc2ccccc2c(=O)n1/N=C/c1ccco1 | – | inactive: 10.4%
Cc1ccc(S(=O)(=O)N(C)CC(=O)Nc2nnc(CC(C)C)s2)cc1 | inconclusive: 1.41 µM [inhibitor, full curve, poor fit] | –
COc1ccc(N2CCN(C(=O)COC(=O)[C@@H](NC(=O)OCc3ccccc3)C(C)C)CC2)cc1 | inconclusive: 100 µM [inhibitor, single point] | –
O=C(COC(=O)Cc1ccc(Cl)cc1)NC1CCCC1 | – | inactive: 0.299%
COc1ccc(N2CCN(C(=O)C3CCN(S(=O)(=O)c4cccs4)CC3)CC2)cc1 | inconclusive: 50.1 µM [inhibitor, partial curve, poor fit] | –
Cc1ccc(S(=O)(=O)NCCC(=O)NCCc2ccccc2)cc1 | inconclusive: 50.1 µM [inhibitor, partial curve, poor fit] | –
Cc1ccc(C)c(S(=O)(=O)N/N=C2/CCCc3ccccc32)c1 | – | inactive: 2.88%

Structure (SMILES) | Potency | activity change, negative = inhibition
COc1ccc(C(=O)NC(=S)Nc2ccc(CN3CCCCC3)cc2)cc1Cl | inconclusive: 44.7 µM [inhibitor, partial curve, poor fit] | –
O=C(CC1CCCCC1)Nc1nc(-c2c[nH]c3ccccc23)cs1 | inconclusive: 39.8 µM [inhibitor, partial curve, poor fit] | –
S=C(NNc1cccc(Cl)c1)NC1CCCCC1 | inconclusive: 44.7 µM [inhibitor, partial curve, poor fit] | –
CCOC(=O)c1cc(-c2ccccc2)sc1NC(=O)C(C)C | – | inactive: -16.6%
Cc1ccc(-n2c(Cc3ccccc3)nnc2SCc2nc(-c3cccs3)no2)cc1 | – | inactive: -28.9%
COC(=O)c1cc(S(=O)(=O)NC2CCN(Cc3ccccc3)CC2)cn1C | inconclusive: 35.5 µM [inhibitor, single point] | –
CN(C)C(=O)C1CN(C(=O)NC2CCCCC2)CC12CCOCC2 (configuration not stated) | – | inactive: 15.7%
CC(C)(C)c1nc2c(C#N)c(-c3ccc(Cl)cc3)ccn2n1 | – | inactive: 46.8%
Cc1ccc2c(c1)-c1c(cnn1CC(=O)O)CO2 | inconclusive: 22.4 µM [inhibitor, single point] | –
O=C(COC(=O)c1cnccn1)Nc1ncc(C(F)(F)F)cc1Cl | active: 5.01 µM | –
COc1ccc(Nc2oc(-c3ccc(Cl)cc3)nc2C#N)cc1 | inconclusive: 35.5 µM [inhibitor, partial curve, poor fit] | –
CC(c1cc2ccccc2o1)N(C)Cc1nc(-c2ccc(Cl)cc2)no1 (configuration not stated) | – | inactive: 2.83%
COCC(=O)NC[C@@H]1C=C(C)[C@H](Cc2nc3ccc(C)cc3[nH]2)C[C@H]1C(C)C | – | inactive: 71.4% [at 176 µM]
Cc1cc(C)c(C)c(S(=O)(=O)Nc2cccc(S(=O)(=O)Nc3ccccc3C(=O)O)c2)c1C | inconclusive: 56.2 µM [inhibitor, partial curve, poor fit] | –
Cc1ccc(/C=C/c2onc(C)c2S(=O)(=O)N2CCC(C(=O)N3CCC(N(C)C(C)C)CC3)CC2)cc1 | inconclusive: 79.4 µM [inhibitor, partial curve, poor fit] | –
CC(=O)Nc1ccc(CN2CCC[C@H]2c2nc(-c3ccnc(NS(C)(=O)=O)c3)no2)cc1 | inconclusive: 100 µM [inhibitor, partial curve, poor fit] | –
O=C(Nc1ccon1)c1cnc2sccn2c1=O | inconclusive: 3.98 µM [inhibitor, full curve, poor fit] | –
O=S(=O)(NOCc1ccc(Cl)cc1)c1ccc(Cl)cc1 | inconclusive: 44.7 µM [inhibitor, partial curve, poor fit] | –
COc1cc(C(=O)Oc2c(Sc3ccccc3)c(C)nn2-c2ccccc2)cc(OC)c1OC | inconclusive: 89.1 µM [inhibitor, partial curve, poor fit] | –
Cc1ccc(Oc2ccc(NC(=O)c3n[nH]c(=O)c4ccccc34)cc2)cc1 | – | inactive: -4.09%
CCc1ccc(NC(=O)CSc2nc3c(c(=O)[nH]2)CN(Cc2ccc(Cl)cc2)CC3)cc1 | inconclusive: 15.8 µM [inhibitor, full curve] | –
Cc1ccc(S(=O)(=O)NCC2CN(Cc3ccccc3)CCO2)c(Br)c1 (configuration not stated) | inconclusive: 126 µM [inhibitor, single point] | –
Cc1nn(-c2ccccc2)c(OC(=O)C(C)C)c1Sc1ccc(Cl)cc1 | inconclusive: 112 µM [inhibitor, single point] | –

Structure (SMILES) | Potency | activity change, negative = inhibition
Cc1ccc(/C=C/c2onc(C)c2S(=O)(=O)N2CCC(C(=O)Nc3ccc(C)c(N(C)C)c3)CC2)cc1 | – | inactive: -3.08%
CCOC(=O)C1=C(O)C(=O)N(c2ccccc2)C1c1ccc(F)cc1 (configuration not stated) | inconclusive: 0.891 µM [inhibitor, full curve, poor fit] | –
O=C(CN1C(=O)NC2(CCCCC2)C1=O)N1CCCCC1 | – | inactive: 28.7%
O=C(Nc1ccccc1Br)c1cc2cc(Br)ccc2oc1=O | inconclusive: 50.1 µM [inhibitor, partial curve, poor fit] | –
CC1CCCN(CCCNC(=O)c2ccc3c(c2)N(Cc2ccccc2F)C(=O)c2ccccc2S3(=O)=O)C1 (configuration not stated) | – | inconclusive: -31% [inhibitor]
COc1ccccc1/C=C/c1nc(C#N)c(N2CCN(Cc3ccccc3)CC2)o1 | – | inactive: -7.59%
COc1ccccc1C(=O)OCC#CCSc1nnc(-c2cccc3ccccc23)o1 | inconclusive: 126 µM [inhibitor, single point] | –
O=C(NCC1CCCO1)C1CCN(S(=O)(=O)Cc2ccccc2)CC1 (configuration not stated) | – | inactive: 0%
COc1cc(/C=N/n2c(C3CCCCC3)n[nH]c2=S)cc(Br)c1O | inconclusive: 44.7 µM [inhibitor, partial curve, poor fit] | –
COc1ccccc1CNC(=S)NC1CCCCC1 | inconclusive: 50.1 µM [inhibitor, partial curve, poor fit] | –
Cc1cccc(N2CCN(C(=O)c3ccc(CS(=O)Cc4cccc(Cl)c4)o3)CC2)c1C (configuration not stated) | inconclusive: 50.1 µM [inhibitor, single point] | –
Oc1c(CN2CCCCC2)cc(Br)c2cccnc12 | active: 5.62 µM | –
Cc1csc(NC(=O)NC2CC(=O)N(c3cccc(F)c3)C2)n1 (configuration not stated) | – | inactive: -2.65%
N=C1C(c2nc(-c3ccc(Cl)cc3)cs2)=C(O)CN1NC(=O)c1ccc(O)cc1 | inconclusive: 44.7 µM [inhibitor, partial curve, poor fit] | –
O=C(NNc1ccc([N+](=O)[O-])cc1)C12CC3CC(CC(C3)C1)C2 | inconclusive: 44.7 µM [inhibitor, partial curve, poor fit] | –
CCn1c(CNC(C)c2ccccc2)nc2cc(S(=O)(=O)N3CCOCC3)ccc21 (configuration not stated) | – | inactive: 40%
O=C(COC(=O)C(c1ccccc1)c1ccccc1)Nc1ccc(N2CCOCC2)cc1 | inconclusive: 100 µM [inhibitor, partial curve, poor fit] | –
O=C(c1cccs1)N1CCN(S(=O)(=O)N2CCCCC2)CC1 | inconclusive: 4.47 µM [inhibitor, partial curve, poor fit] | –
O=CN1CCN(C(C(=O)O)c2cn(CC(=O)O)c3ccc(Br)cc23)CC1 (configuration not stated) | inconclusive: 50.1 µM [inhibitor, single point] | –
O=C(Nc1ccc2c(c1)OCCO2)C1C(=O)Nc2ccccc2C(=O)N1C1CCCCC1 (configuration not stated) | inconclusive: 3.55 µM [inhibitor, full curve, poor fit] | –
O=C(Cc1coc2cc3c(cc12)CCC3)NC1CCSc2c(F)cccc21 (configuration not stated) | inconclusive: 31.6 µM [inhibitor, partial curve, poor fit] | –

Copied from the list:
Entry of COc1cc(/C=N/n2c(C3CCCCC3)n[nH]c2=S)cc(Br)c1O under Potency: inconclusive: 44.7 µM [inhibitor, partial curve, poor fit]
Entry of Cc1csc(NC(=O)NC2CC(=O)N(c3cccc(F)c3)C2)n1 (configuration not stated) under activity change, negative = inhibition: inactive: -2.65%
Entry of CCOC(=O)C1=C(O)C(=O)N(c2ccccc2)C1c1ccc(F)cc1 (configuration not stated) under Potency: inconclusive: 0.891 µM [inhibitor, full curve, poor fit]
Entry of O=C(COC(=O)C(c1ccccc1)c1ccccc1)Nc1ccc(N2CCOCC2)cc1 under Potency: inconclusive: 100 µM [inhibitor, partial curve, poor fit]
